From the supplement of paper PMC7024190 come the findings set out here.

Structures can show the parent of a compound that is named as a salt. The list shows a part of the results. This data set is noisy: repeats of one test often differ as much as different tests do.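 A first-round screen of about ten thousand compounds sought those raising reporter output, using human embryonic kidney cells briefly transfected with a plasmid carrying a Renilla luciferase gene driven by the HSV-TK promoter.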

The test system of the assay is HEK 293FT. Briefly: log relative Renilla luciferase luminescence (reporter expression vs reference, reference not stated) (log (base not stated)); higher = higher recombinant reporter expression. The conditions noted are these: 10 µM; time after transfection 48 h.
Turning to `COc1c(N2CCNC(C)C2)c(F)cc2c(=O)c(C(=O)O)cn(C3CC3)c12` (configuration not stated) [Gatifloxacin], the log turned out to be 0.132.

Regarding `O=C(c1ccccc1)c1ccc2n1CCC2C(=O)O` (configuration not stated) [Ketorolac tromethamine], the log worked out at 0.145.

Take `CCOC(=O)[C@@](C)(N)Cc1ccc(O)c(O)c1` [Methyldopate hydrochloride]: the log came to 0.0769.

`Nc1ccn([C@@H]2CS[C@H](CO)O2)c(=O)n1` [Lamivudine]: the log is -0.058.

With `Cc1cc(N)c2ccccc2[n+]1CCCCCCCCCC[n+]1c(C)cc(N)c2ccccc21` [Dequalinium dichloride], the log was -0.148.

For `COc1ccccc1OCC(O)COC(N)=O` (configuration not stated) [Methocarbamol], the log was determined as 0.0377.

On to `NC1CCN(c2nc3c(cc2F)c(=O)c(C(=O)O)cn3-c2ccc(F)cc2F)C1` (configuration not stated) [Tosufloxacin hydrochloride], for which the log amounted to 0.0404.

With `COC(=O)Nc1nc2cc([S+]([O-])c3ccccc3)ccc2[nH]1` (configuration not stated) [Oxfendazol], the log is -0.356.

Regarding `CCCOc1ccc(C(=O)OCCN(CC)CC)cc1N` [Proparacaine hydrochloride], the log is -0.00375.

`CC(=O)OCC(=O)[C@@]1(OC(C)=O)[C@@H](C)C[C@H]2[C@@H]3C[C@H](F)C4=CC(=O)C=C[C@]4(C)[C@@]3(F)[C@@H](O)C[C@@]21C` [Diflorasone Diacetate]: the log is -0.121.

Consider `CC[C@@H](CO)NCCN[C@@H](CC)CO` [Ethambutol dihydrochloride], for which the log came out at 0.0542.

As to `CC(CN(C)C)C(C)(O)Cc1ccc(Cl)cc1` (configuration not stated) [Clobutinol hydrochloride], the log is -0.0656.

On to `C[C@]1(Cn2ccnn2)[C@H](C(=O)O)N2C(=O)C[C@H]2S1(=O)=O` [Tazobactam], for which the log was -0.0219.

As to `C=CCOC(Cn1ccnc1)c1ccc(Cl)cc1Cl` (configuration not stated) [Enilconazole], the log is -0.132.

Turning to `CC(CN(C)C)CN1c2ccccc2Sc2ccccc21` (configuration not stated) [Trimeprazine tartrate], the log is -0.044.

Turning to `CC1(C)[C@@H](OC(=O)CCC(=O)O)CC[C@]2(C)[C@H]3C(=O)C=C4[C@@H]5C[C@@](C)(C(=O)O)CC[C@]5(C)CC[C@@]4(C)[C@]3(C)CC[C@@H]12` [Carbenoxolone disodium salt], the log is -0.109.

As for `N=C(N)NCCN1CCCCCCC1` [Guanethidine sulfate], the log was 0.151.

`C#C[C@]1(O)CC[C@H]2[C@@H]3CCC4=CC(=O)CC[C@@H]4[C@H]3CC[C@@]21CC` [Norgestrel-(-)-D]: the log is -0.111.

With `CC(C(=O)O)c1ccc(C(=O)c2ccccc2)s1` (configuration not stated) [Tiaprofenic acid], the log came out at 0.0581.

Turning to `CC(=O)N(CC(O)CN(C(C)=O)c1c(I)c(C(=O)NCC(O)CO)c(I)c(C(=O)NCC(O)CO)c1I)c1c(I)c(C(=O)NCC(O)CO)c(I)c(C(=O)NCC(O)CO)c1I` (configuration not stated) [Iodixanol], the log was -0.0696.

`c1ccc(CN(CC2=NCCN2)c2ccccc2)cc1` [Antazoline hydrochloride]: the log turned out to be 0.0464.

As to `CN(C)CC/C=C1/c2ccccc2COc2ccc(CC(=O)O)cc21` [Olopatadine hydrochloride], the log worked out at 0.0464.

Regarding `C=CCSCC1Nc2cc(Cl)c(S(N)(=O)=O)cc2S(=O)(=O)N1` (configuration not stated) [Althiazide], the log was -0.412.

For `C[C@]12CC[C@@H]3c4ccc(OS(=O)(=O)O)cc4CC[C@H]3[C@@H]1CCC2=O` [Estropipate], the log turned out to be 0.121.

Turning to `Cc1ccc(S(=O)(=O)NC(=O)NN2CCCCCC2)cc1` [Tolazamide], the log worked out at 0.132.

Regarding `CCN(CC)CCOC(=O)C(c1ccccc1)c1ccccc1` [Adiphenine hydrochloride], the log is 0.14.

As to `OC(CCCN1CCCCC1)(c1ccccc1)c1ccccc1` [Diphenidol hydrochloride], the log was -0.166.

`Nc1nc(NC2CC2)c2ncn([C@H]3C=C[C@@H](CO)C3)c2n1` [Abacavir Sulfate]: the log was -0.388.

Turning to `CN(Cc1cnc2nc(N)nc(N)c2n1)c1ccc(C(=O)N[C@@H](CCC(=O)O)C(=O)O)cc1` [Methotrexate], the log is -0.416.

Take `CN(Cc1cnc2nc(N)nc(N)c2n1)c1ccc(C(=O)N[C@@H](CCC(=O)O)C(=O)O)cc1` (racemic) [Amethopterin (R,S)]: the log was -0.313.

For `O=C(COc1ccc(Cl)cc1)N1CCN(Cc2ccc3c(c2)OCO3)CC1` [Fipexide hydrochloride], the log stood at 0.0619.

With `CNC(C)CCC=C(C)C` (configuration not stated) [Isometheptene mucate], the log was -0.103.

For the molecule `CCN(CC)CCNc1ccc(CO)c2sc3ccccc3c(=O)c12` [Hycanthone], the log stood at 0.0481.

Turning to `CN(C)c1ccc(O)c2c1C[C@H]1C[C@H]3[C@H](N(C)C)C(O)=C(C(N)=O)C(=O)[C@@]3(O)C(O)=C1C2=O` [Minocycline hydrochloride], the log amounted to 0.197.

With `Cc1ccsc1/C=C/C1=NCCCN1C` [Morantel tartrate], the log is 0.121.

Regarding `CN(C)[C@@H]1C(O)=C(C(N)=O)C(=O)[C@@]2(O)C(O)=C3C(=O)c4c(O)cccc4[C@@](C)(O)[C@H]3[C@H](O)[C@@H]12` [Oxytetracycline dihydrate], the log came to 0.0787.

For the molecule `CSc1ccc2c(c1)N(CCC1CCCCN1C)c1ccccc1S2` (configuration not stated) [Thioridazine hydrochloride], the log is -0.00375.

As to `CC/C(=C(/CC)c1ccc(O)cc1)c1ccc(O)cc1` [Diethylstilbestrol], the log was -0.041.

As to `CC1=C(/C=C/C(C)=C/C=C/C(C)=C\C(=O)O)C(C)(C)CCC1` [Isotretinoin], the log was determined as 0.0157.

Take `NC(N)=Nc1nc(CSCC/C(N)=N/S(N)(=O)=O)cs1` [Famotidine]: the log was -0.0566.

Turning to `Cc1cc(-c2ccccc2)nnc1NCCN1CCOCC1` [Minaprine dihydrochloride], the log is -0.0812.

Consider `COc1cc(-c2ccc(=O)[nH]n2)ccc1OC(F)F` [Zardaverine], for which the log is -0.213.

Take `CCCCC1(COC(=O)CCC(=O)O)C(=O)N(c2ccccc2)N(c2ccccc2)C1=O` [Suxibuzone]: the log worked out at 0.0878.

For `COc1cc(NC(C)CCCN)c2ncccc2c1` (configuration not stated) [Primaquine diphosphate], the log is -0.199.

Regarding `CCCCNc1c(C(=O)OCC)c(C)nc2c1cnn2CC` [Tracazolate hydrochloride], the log was found to be 0.157.

`CC(C)(C)c1ccc(C(O)CCCN2CCC(C(O)(c3ccccc3)c3ccccc3)CC2)cc1` (configuration not stated) [Terfenadine]: the log came out at 0.0422.

`CC(COc1ccccc1)NC(C)C(O)c1ccc(O)cc1` (configuration not stated) [Isoxsuprine hydrochloride]: the log was -0.0196.
